These are yes or no findings as the source states them, for the method shown. Binding calls can cover weak binding; strength is not graded here.

Protein sequences, listed by entry. Tags and fused reporters are not part of them. Lines headed by an entry give the natural chain unless they say otherwise; changes in a name come on top. Chains listed by the source or under a name are the forms on record and can include a tag or linker.
UniProt Q60780: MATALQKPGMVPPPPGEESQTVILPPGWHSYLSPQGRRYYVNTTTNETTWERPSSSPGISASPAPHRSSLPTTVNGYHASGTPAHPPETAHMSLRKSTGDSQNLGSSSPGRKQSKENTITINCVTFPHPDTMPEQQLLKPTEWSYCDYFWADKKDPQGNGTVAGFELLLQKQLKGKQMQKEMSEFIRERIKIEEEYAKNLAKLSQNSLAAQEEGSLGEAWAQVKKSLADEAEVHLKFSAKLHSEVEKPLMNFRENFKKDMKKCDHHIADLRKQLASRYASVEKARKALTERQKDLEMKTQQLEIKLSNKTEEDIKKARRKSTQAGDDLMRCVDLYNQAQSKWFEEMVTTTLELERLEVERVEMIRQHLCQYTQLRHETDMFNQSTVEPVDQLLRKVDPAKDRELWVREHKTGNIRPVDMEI
UniProt Q95107: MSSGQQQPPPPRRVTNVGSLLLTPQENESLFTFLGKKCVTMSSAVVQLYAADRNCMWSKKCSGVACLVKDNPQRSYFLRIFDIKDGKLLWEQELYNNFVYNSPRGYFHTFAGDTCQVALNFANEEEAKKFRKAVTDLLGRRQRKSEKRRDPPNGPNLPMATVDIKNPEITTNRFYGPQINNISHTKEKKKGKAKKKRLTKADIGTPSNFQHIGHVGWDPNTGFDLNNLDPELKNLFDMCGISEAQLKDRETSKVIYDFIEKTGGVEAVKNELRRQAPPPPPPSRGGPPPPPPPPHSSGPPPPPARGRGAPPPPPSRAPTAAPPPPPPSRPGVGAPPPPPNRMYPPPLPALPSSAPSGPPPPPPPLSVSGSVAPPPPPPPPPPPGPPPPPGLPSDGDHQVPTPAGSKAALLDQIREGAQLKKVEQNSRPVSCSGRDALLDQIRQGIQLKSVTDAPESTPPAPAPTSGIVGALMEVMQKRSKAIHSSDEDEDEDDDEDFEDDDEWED
N-WASP ΔPRR without a tag (Q95107, form named): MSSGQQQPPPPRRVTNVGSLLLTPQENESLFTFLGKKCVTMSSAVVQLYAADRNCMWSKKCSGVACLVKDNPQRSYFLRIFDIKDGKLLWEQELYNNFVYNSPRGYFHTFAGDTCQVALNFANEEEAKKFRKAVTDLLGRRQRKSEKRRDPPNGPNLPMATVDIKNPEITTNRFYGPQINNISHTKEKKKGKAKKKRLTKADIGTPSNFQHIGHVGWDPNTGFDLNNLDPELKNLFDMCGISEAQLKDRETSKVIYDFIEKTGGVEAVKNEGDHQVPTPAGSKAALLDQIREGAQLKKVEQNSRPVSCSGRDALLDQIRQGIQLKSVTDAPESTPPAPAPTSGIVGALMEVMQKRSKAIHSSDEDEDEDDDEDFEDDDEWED

For this test, the target named is GST-GAS7cb (mouse) (UniProt Q60780). Briefly: pull-down; 1 μM GST-fused protein (or GST) on Glutathione Sepharose beads; 0.5 μM tag-free protein (1 μM for Nck and Grb2 with N-WASP and GAS7 isoforms); 10 mM tris-HCl pH 7.5, 150 mM NaCl, 1 mM EDTA, 5% glycerol; 4°C, 1 hour; SDS-PAGE and Western blotting; both purified.
With “Grb2 without a tag (from UniProt P62994-1 1-217)”, the binding result is given as “no binding (tested: 1 μM)”.
With “N-WASP without a tag (from UniProt Q95107 1-505)”, the binding result is on record as “binds”.
The result for “N-WASP ΔPRR without a tag (from UniProt Q95107)” reads “binds”.
